Data from paper PMC9468182.
No constants are given. Whether binding was seen depends on the method and setting. Binding seen in cells or lysates may run through a third protein. Some binding calls cover weakened binding; strength is not graded here.

Amino acid sequences for entries named in this document (tags omitted).
UniProt Q8VDZ4: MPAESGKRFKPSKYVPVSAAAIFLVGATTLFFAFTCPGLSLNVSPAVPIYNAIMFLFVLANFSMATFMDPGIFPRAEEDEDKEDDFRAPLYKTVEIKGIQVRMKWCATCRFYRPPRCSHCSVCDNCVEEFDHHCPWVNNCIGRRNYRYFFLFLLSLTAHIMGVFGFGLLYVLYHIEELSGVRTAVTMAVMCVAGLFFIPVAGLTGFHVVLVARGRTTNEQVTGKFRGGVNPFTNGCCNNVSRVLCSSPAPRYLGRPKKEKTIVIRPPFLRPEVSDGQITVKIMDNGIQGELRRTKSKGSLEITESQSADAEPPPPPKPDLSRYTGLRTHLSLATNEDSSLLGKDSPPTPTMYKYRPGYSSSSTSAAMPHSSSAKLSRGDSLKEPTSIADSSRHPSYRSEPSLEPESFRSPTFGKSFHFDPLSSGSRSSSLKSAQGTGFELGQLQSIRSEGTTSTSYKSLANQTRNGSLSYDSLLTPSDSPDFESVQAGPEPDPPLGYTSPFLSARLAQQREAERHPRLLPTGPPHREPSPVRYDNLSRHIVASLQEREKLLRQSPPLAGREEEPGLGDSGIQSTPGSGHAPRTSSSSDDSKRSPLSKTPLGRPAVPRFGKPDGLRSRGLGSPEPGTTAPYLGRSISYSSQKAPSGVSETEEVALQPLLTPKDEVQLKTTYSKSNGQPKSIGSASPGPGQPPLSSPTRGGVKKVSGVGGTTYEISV

Experiments:
[1] = molecular target: Synapsin1 triple-cysteine mutant Syn1-3CA, expressed in HEK-293T cells for co-immunoprecipitation with ZDHHC5 (mouse) (UniProt O88935); experiment: co-IP; Syn1-WT or Syn1-3CA coexpressed with or without ZDHHC5 in HEK-293T cells; which protein was precipitated is not told
[2] = molecular target: Synapsin1 wild type, expressed in HEK-293T cells for co-immunoprecipitation with ZDHHC5 (mouse) (UniProt O88935); experiment: as above
[3] = molecular target: ZDHHC5, endogenous in mouse hippocampus (mouse (endogenous in hippocampus)) (UniProt Q8VDZ4); experiment: co-IP; lysate of mouse hippocampus, precipitation with ZDHHC5 antibody, Syn1 detected

Substance	binding [1]	binding [2]	binding [3]
ZDHHC5, expressed in HEK-293T cells (from UniProt Q8VDZ4 1-715) (enzyme)	binds	binds	–
Synapsin1, endogenous in mouse hippocampus (from UniProt O88935 1-706)	–	–	binds
